Laboratory results: PubChem BioAssay AID743454 (Peter MacCallum Cancer Centre, 2014)
Shown is an unselected part of about 18,000 deposited reagents. 450 of all reagents (2.5%) were called active. 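Single biological run; no consistent viability z cut-off exists, so the class columns, not z-scores, define the calls.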 Unmarked entries are inactive. No sequences are given here.

- Assay: 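Genes whose loss kills vorinostat-resistant colon cancer cells under vorinostat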 (primary screen)
- Cells: human HCT116-VR colon cancer cells, selected for vorinostat resistance
- Knock-down reagent: siRNA pool against human genes, 40 nM siRNA pool
- Timing: vorinostat for 24 h, read-out about 72 h after transfection
- Challenge: vorinostat at 2.5 µM final
- Measured: 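Two measures, CellTiter-Fluor viability and luminescent caspase 3/7 activity, each as fold change against same-plate mock wells, mean of duplicates, then screen-wide robust z-score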
- Scale: viability robust z-score: higher = more viable cells than screen typical; caspase robust z-score: higher = more caspase 3/7 activity than screen typical
- Hit rule: 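Hits are knock-downs in viability class RV1/RV2 or caspase class CA1/CA2, excluding ones that killed cells in the no-drug cell-count arm; hits then retested with single siRNAs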

| Gene | viability hit class | caspase hit class | viability robust z-score | caspase robust z-score |
| --- | --- | --- | --- | --- |
| RBL1 | no change | no change | -0.24 | -0.62 |
| SSX7 | no change | no change | 0.38 | -0.84 |
| GATAD1 | no change | no change | -1.57 | 2.02 |
| DEFB1 | no change | no change | -0.15 | -0.06 |
| MTBP | no change | no change | -0.9 | -0.11 |
| SRD5A3 | no change | no change | -0.19 | 0.4 |
| DDX39A | no change | no change | -1.64 | 0.18 |
| RXFP2 | no change | no change | 1.11 | -0.44 |
| PTPRG | no change | no change | 1.58 | 0.26 |
| ELK1 | no change | no change | -0.56 | -0.3 |
| TROAP | no change | no change | -0.21 | 0.88 |
| LRRD1 | no change | no change | 2.15 | -0.06 |
| KLRC4 | no change | no change | 0.06 | -0.79 |
| TM2D2 | no change | no change | -1.12 | -0.77 |
| PRKAR1B | no change | no change | -0.4 | 2.34 |
| PCDHGA10 | no change | no change | -1.81 | 1.99 |
| TMEM259 | no change | no change | -0.64 | 0.64 |
| NKIRAS1 | no change | no change | 0.4 | 0.68 |
| BPHL | no change | no change | 0.82 | -0.66 |
| PPT2 | no change | no change | 0.21 | 0.1 |
| P2RY6 | no change | no change | 0.76 | 0.88 |
| FGF8 | no change | no change | -0.36 | 0 |
| FNTA | no change | no change | 1.58 | -0.02 |

3 entries from above, sorted by “viability robust z-score”, descending:
| Gene | viability hit class | caspase hit class | viability robust z-score | caspase robust z-score |
| --- | --- | --- | --- | --- |
| FNTA | no change | no change | 1.58 | -0.02 |
| P2RY6 | no change | no change | 0.76 | 0.88 |
| FGF8 | no change | no change | -0.36 | 0 |
